# According to patent US20180348231A1, “LIGAND INDUCIBLE POLYPEPTIDE COUPLER SYSTEM” (Intrexon Corporation, priority 2015, published 2018):
# For at least one compound, name, drawing or mass did not settle the structure.
# Test system: split fLuc fused to EcR and RXR domains
# Test: Split firefly luciferase (fLuc) bioluminescence assay, EcR-RXR ligand inducible polypeptide coupler
# Format: cell-based
# Conditions: Table 2; Exp; Vector 1 RXR-fLuc, Vector 2 fLuc-EcR; Treatment Ligand
# Protocol: HEK293 cells were transfected with the split fLuc fused to EcR and RXR domains as follows:
# A day before transfection, 10,000 cells (293T cells) were plated into each well of a 96 well plate containing 100 μl of growth medium (Dulbecco's Modified Eagle's Medium with 10% Fetal Bovine Serum) without antibiotics. Plasmids in pairs, RxR Nluc with Cluc EcR and EcR_ Nluc with Cluc_ RxR (see FIG. 8; amino acid sequences for the constructs depicted in FIG. 8 are provided as SEQ ID NOs: 87-92, respectively. SEQ ID NOs: 91 and 92 correspond to the EcR and RXR amino sequences, respectively, employed in the constructs of FIG. 8), were transfected with Lipofectamine® 2000, according to manufacturer's specifications. Briefly, individual plasmid DNA (0.2 μg) and 0.5 μl of Lipofectamine 2000® was diluted in 25.0 μl of OptiMEM® I Reduced Serum Medium and incubated for 5 minutes at room temperature, volumes were doubled for co-transfections. Diluted plasmid DNA was combined with diluted Lipofectamine® 2000 and incubated for 20 minutes at room temperature. 50 μl of the DNA/Lipofectamine® 2000 complex was added to each well of the 96 well plate. Cells were incubated at 37° C. in a 5% CO2 incubator for 24 hours, prior to addition of the activating ligand Veledimex. […]
compound,measurement,value
CCC[C@@H](N(NC(=O)c1cccc(OC)c1CC)C(=O)c1cc(C)cc(C)c1)C(C)(C)C [Veledimex],fLuc Activity,+
